For test [1], the target named is T1, GST-Pea2-CC1 R270E (Saccharomyces cerevisiae (strain S288c)) (UniProt P40091).
T1 sequence: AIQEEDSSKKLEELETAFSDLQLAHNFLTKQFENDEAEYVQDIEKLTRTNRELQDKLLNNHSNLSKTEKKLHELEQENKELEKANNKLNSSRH
Description: condition: 500 μM Myo2-GTD in the syringe, 50 μM Pea2-MIS in the cell; ITC; 500 μM Myo2-GTD in the syringe titrated into 50 μM Kar9-MIS or Pea2-MIS in the cell, 25 °C; one-site binding model; both purified.

The chains behind the UniProt entries cited, without tags or fusion partners. Where a name states a change or a piece, a line headed by the entry shows the natural chain unless it says otherwise.
UniProt P19524: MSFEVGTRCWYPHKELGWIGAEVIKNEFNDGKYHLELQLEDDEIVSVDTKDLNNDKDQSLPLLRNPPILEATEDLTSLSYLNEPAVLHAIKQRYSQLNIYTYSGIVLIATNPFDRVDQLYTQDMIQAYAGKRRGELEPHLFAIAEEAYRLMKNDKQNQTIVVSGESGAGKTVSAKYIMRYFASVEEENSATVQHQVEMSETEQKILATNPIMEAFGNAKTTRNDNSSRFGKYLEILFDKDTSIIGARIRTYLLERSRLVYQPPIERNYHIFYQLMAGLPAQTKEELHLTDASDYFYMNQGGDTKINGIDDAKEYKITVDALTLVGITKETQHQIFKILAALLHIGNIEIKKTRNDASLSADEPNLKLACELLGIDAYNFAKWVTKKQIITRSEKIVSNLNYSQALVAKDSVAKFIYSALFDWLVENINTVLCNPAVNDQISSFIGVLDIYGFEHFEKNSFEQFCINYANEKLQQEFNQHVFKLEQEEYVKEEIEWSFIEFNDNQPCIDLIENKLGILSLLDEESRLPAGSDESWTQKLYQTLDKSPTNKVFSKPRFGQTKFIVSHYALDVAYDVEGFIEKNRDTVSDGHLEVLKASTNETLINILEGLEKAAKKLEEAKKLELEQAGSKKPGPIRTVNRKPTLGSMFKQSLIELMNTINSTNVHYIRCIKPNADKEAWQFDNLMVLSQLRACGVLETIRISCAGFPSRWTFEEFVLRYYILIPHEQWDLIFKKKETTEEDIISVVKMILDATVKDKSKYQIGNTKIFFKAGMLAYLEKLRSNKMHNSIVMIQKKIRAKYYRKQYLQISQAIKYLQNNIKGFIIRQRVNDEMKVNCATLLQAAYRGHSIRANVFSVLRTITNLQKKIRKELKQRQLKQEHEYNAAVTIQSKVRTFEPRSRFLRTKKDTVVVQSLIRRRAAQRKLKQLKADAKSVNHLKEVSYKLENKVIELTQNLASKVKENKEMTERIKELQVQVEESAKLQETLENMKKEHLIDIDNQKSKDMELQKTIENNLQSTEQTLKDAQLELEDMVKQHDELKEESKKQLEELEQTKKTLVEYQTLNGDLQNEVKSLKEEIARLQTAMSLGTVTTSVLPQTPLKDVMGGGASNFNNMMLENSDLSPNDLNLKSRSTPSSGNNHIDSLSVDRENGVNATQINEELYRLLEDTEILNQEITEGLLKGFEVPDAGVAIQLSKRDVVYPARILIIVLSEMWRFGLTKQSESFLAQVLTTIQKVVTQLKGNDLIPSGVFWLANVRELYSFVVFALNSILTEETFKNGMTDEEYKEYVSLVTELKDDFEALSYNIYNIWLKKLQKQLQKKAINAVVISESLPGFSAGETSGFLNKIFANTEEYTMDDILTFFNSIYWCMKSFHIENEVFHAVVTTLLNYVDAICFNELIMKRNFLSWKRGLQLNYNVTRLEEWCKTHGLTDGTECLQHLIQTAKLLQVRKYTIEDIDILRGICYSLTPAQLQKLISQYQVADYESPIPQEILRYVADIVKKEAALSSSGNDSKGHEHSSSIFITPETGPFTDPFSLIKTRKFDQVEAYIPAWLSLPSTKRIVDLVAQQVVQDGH

Test [2] deals with T2, GST-Pea2-CC1 F261Q (Saccharomyces cerevisiae (strain S288c)) (UniProt P40091).
T2 sequence: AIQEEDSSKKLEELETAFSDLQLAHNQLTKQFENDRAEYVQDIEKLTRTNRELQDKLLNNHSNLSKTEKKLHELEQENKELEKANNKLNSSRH
Described as above.

Test [3] addresses T3, Kar9^C-MIS K473E (Saccharomyces cerevisiae (strain S288c)) (UniProt P32526).
T3 sequence: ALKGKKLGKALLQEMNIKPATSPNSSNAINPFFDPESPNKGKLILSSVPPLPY
As to the kind of experiment: condition: 500 μM Myo2-GTD in the syringe, 50 μM Kar9-MIS in the cell; ITC; 500 μM Myo2-GTD in the syringe titrated into 50 μM Kar9-MIS or Pea2-MIS in the cell, 25 °C; one-site binding model; both purified.

The target in test [4] is T4, Kar9^C-MIS (Myo2-interacting sequence in the C-terminal region of Kar9) (Saccharomyces cerevisiae (strain S288c)) (UniProt P32526).
T4 sequence: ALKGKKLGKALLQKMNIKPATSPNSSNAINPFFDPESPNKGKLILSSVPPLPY
Description: ITC; 500 μM Myo2-GTD in the syringe titrated into 50 μM Kar9-MIS or Pea2-MIS in the cell, 25 °C; one-site binding model; both purified. (Isothermal titration calorimetry measures the heat released or taken up as one component is titrated into another.)

Test [5] concerns the target Myo2-GTD (globular tail domain of Myo2) (Saccharomyces cerevisiae (strain S288c)) (UniProt P19524). Description: ITC; summary of affinities of cargo adaptors and Myo2-GTD variants (Figure 5B, Figure S7); which protein was in the syringe is not told for Smy1-MIS; both purified.
The target is the same in test [6]. As to the kind of experiment: SEC-MALS; 100 μL of 100 μM protein on Superdex 200 Increase 10/300 GL; 50 mM Tris-HCl pH 7.5, 100 mM NaCl, 1 mM EDTA, 1 mM DTT; both purified. For orientation: SEC sorts molecules by how far they enter the pores of the column.
Test [7] shares this target. As to the kind of experiment: condition: 200 μM Vac17-MIS in the syringe, 20 μM Myo2-GTD in the cell; ITC; 200 μM Vac17-MIS in the syringe titrated into 20 μM Myo2-GTD in the cell, 25 °C; one-site binding model; both purified.

These are yes or no findings as the source states them, for the method shown. For some of these results: Binding can be weak; no strength is given. For some of these results: Where a sequence is shown, tags or fusion partners need not be part of it.

On to “Myo2-GTD (globular tail domain of Myo2) (from UniProt P19524) (domain or fragment)”, for which the binding result is recorded as “no binding” in test [1], “no binding” in test [2], “no binding” in test [3] and “binds” in test [4].

Turning to SSSSIATTGSQESFVARPFKKGLNLHSIKVTSSTPK (domain or fragment) [Smy1-MIS (Myo2-interacting sequence of Smy1)], in test [5], the binding result is on record as “binds”.

B1: Vac17-MIS (Myo2-interacting sequence of Vac17) (domain or fragment, Saccharomyces cerevisiae (strain S288c), UniProt P25591 112-157, looked up)
chain: PNEAPNDSPQSQSTRSSLGSFQPRPLKIIERQRLCMVTPSKPPKKS
notes: Vac17 (vacuole-related protein 17), S. cerevisiae, region containing residues 112-157 (MIS); Named Trx-tagged in the light scattering; also called Trx-Vas17-MIS; Vac17-MIS wild-type; source: E. coli BL21(DE3), purified (Ni2+-NTA, size exclusion chromatography); not shown: Trx, N-terminal, kept
For B1, in test [6], the binding result is reported as “binds”.

As for PNEAPNDSPQSQSTRSSLGSFQPRPLKQIERQRLCMVTPSKPPKKS (domain or fragment, UniProt P25591 112-157) [Vac17-MIS I139Q], the binding entry in test [7] is listed as “no binding”.

For PNEAPNDSPQSQSTRSSLGSFQPEPLKIIERQRLCMVTPSKPPKKS (domain or fragment, UniProt P25591 112-157) [Vac17-MIS R135E], the binding result in test [7] is “no binding”.

Turning to PNEAPNDSPQSQSTRSSLGSFQPRPQKIIERQRLCMVTPSKPPKKS (domain or fragment, UniProt P25591 112-157) [Vac17-MIS L137Q], the binding result in test [7] was “no binding”.

For PNEAPNDSPQSQSTRSSLGSFQPRPLKIIEEQRLCMVTPSKPPKKS (domain or fragment, UniProt P25591 112-157) [Vac17-MIS R142E], the binding result in test [7] is “no binding”.
